Results taken from PubChem BioAssay AID1347076 (National Center for Advancing Translational Sciences (NCATS), 2019).
Where “and” joins values, the source holds several entries; their conditions need not be identical. Equal values may be shown once. Out of some 400,000 compounds screened, about 13,000 (3.2%) were called active. Inconclusive means that the source gave no clear call. Such entries were picked first, then a sample of the others. Calls come from the whole dose curve; as a rule, active = well fitted cell-killing curve with a large enough effect; inconclusive = small, poorly fitted or top-dose-only effect, or effect the other way; inactive = flat fitted curve, though single readings scatter. A potency beside an inconclusive call is a rough fit, not a confirmed value. The source holds several records for some structures; these can differ, active in one and inactive in another.

test: qHTS assay for MDR1-selective chemotherapeutics: Primary screen using the drug-selected MDR subline cells KB-V1; details: KB-V1 MDR cells viability, CellTiter-Glo, 72 h; activity change, negative = cytotoxicity: at 46.1 µM (top of the series); note: nearly all actives have a fitted effect of over 60% in size
Method in brief: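 Cytotoxicity via CellTiter-Glo luminescence after 72 h compound exposure at 37 degrees C. Cells: drug-selected KB-V1 line, DMEM phenol-red free plus 10% FBS. Compounds tested at multiple concentrations; normalized data fitted to concentration-effect curves.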
% is set by controls: 0 for no effect and ±100 for the full control effect; potency is the fitted concentration of half-maximal effect.

Row | SMILES | activity change, negative = cytotoxicity | Potency
1 | CCOc1ccc(CNS(=O)(=O)c2cc3c(cc2C)NC(=O)CO3)cc1OC | inactive: 21.3% | –
2 | Cc1ccc(S(=O)(=O)Nc2ccc(Cl)cc2C(=O)c2ccc(F)cc2)cc1 | – | inconclusive: 16.4 µM [cytotoxic, partial curve, poor fit]
3 | O=C(COc1ccc2c(-c3ccccc3)cc(=O)oc2c1)Nc1ccc(CN2CCOCC2)cc1 | – | inconclusive: 20.6 µM [rising, single point]
4 | Cc1ccc(S(=O)(=O)N2CCC(C(=O)Nc3ccc(N4CCOCC4)cc3)CC2)cc1C | inactive: -0.601% | –
5 | CCN1CCN(c2cc(C)c3cc(NC(=S)N4CCCCC4)ccc3n2)CC1 | – | inconclusive: 3.26 µM [cytotoxic, partial curve, poor fit]
6 | Cc1ccc(CNC(=O)c2ccc(Cn3nc(C)c(Cl)c3C)o2)cc1 | inactive: 0% | –
7 | CCCn1c(/C=N/Nc2nc3ccccc3[nH]2)nc2ccccc21 | – | inconclusive: 3.26 µM [cytotoxic, partial curve, poor fit]
8 | COc1ccc(-c2cc3ccc(O)c(CN4CCOCC4)c3oc2=O)cc1OC | – | inconclusive: 1.46 µM [cytotoxic, full curve]
9 | COc1ccc(NC(=O)COc2ccc(-c3nn(C)c(=O)c4ccccc34)cc2)cc1 | – | inconclusive: 23.1 µM [cytotoxic, single point] and inconclusive: 5.8 µM [cytotoxic, partial curve]
10 | Cc1noc(NS(=O)(=O)c2ccc(NC(=O)C34CC5CC(C3)CC(n3cnc(Br)n3)(C5)C4)cc2)c1C | – | inconclusive: 29.1 µM [rising, single point]
11 | COc1ccccc1CNC(=O)C(NS(=O)(=O)c1cccs1)C(C)C (centres undefined) | – | inconclusive: 29.1 µM [cytotoxic, single point]
12 | CCOC(=O)C1CCN(c2ncnc3c2oc2ccccc23)CC1 | – | inconclusive: 23.1 µM [cytotoxic, single point]
13 | CSc1cccc(NC(=O)CN2C(=O)COc3ccc(Cl)cc32)c1 | – | inconclusive: 29.1 µM [cytotoxic, single point]
14 | O=C(C[C@H]1CC[C@H]2[C@@H](COC[C@H](O)CN2C(=O)c2ccccn2)O1)N1CCN(c2ccccc2)CC1 | inactive: -1.19% | –
15 | O=C(NC1CCCC1)c1cnn2c(C(F)(F)F)cc(-c3ccc4c(c3)OCO4)nc12 | – | inconclusive: 20.6 µM [cytotoxic, partial curve, poor fit]
16 | O=C(Nc1cccc([N+](=O)[O-])c1)c1ccc([N+](=O)[O-])o1 | – | inconclusive: 25.9 µM [cytotoxic, single point]
17 | Cc1ccc(OCC(=O)NC(C)c2ccccc2)cc1C (centres undefined) | inactive: 17.2% | –
18 | COc1ccc(C[C@H]2CN3C(=NC[C@@H]3Cc3ccccc3)N2CCNC(=O)CCC2CCCCC2)cc1 | – | active: 16.4 µM
19 | Cn1c(=O)[nH]c(=O)c2c1nc([N+](=O)[O-])n2Cc1ccccc1 | – | inconclusive: 18.4 µM [cytotoxic, single point]
20 | O=C(COC(=O)c1cccc2ccccc12)Nc1cccnc1Cl | – | inconclusive: 29.1 µM [rising, single point]
21 | COc1ccccc1OCC(=O)Nc1nonc1NC(=O)COc1ccccc1OC | – | inconclusive: 13 µM [cytotoxic, partial curve]
22 | COc1ccc(N2CCCn3c2nc2c3c(=O)n(CCc3ccccc3)c(=O)n2C)cc1 | – | inconclusive: 0.731 µM [cytotoxic, full curve, poor fit]

One compound at a time, as listed above:
O=C(COc1ccc2c(-c3ccccc3)cc(=O)oc2c1)Nc1ccc(CN2CCOCC2)cc1 in the list: Potency: inconclusive: 20.6 µM [rising, single point]
Cc1ccc(S(=O)(=O)N2CCC(C(=O)Nc3ccc(N4CCOCC4)cc3)CC2)cc1C in the list: activity change, negative = cytotoxicity: inactive: -0.601%
Cc1ccc(OCC(=O)NC(C)c2ccccc2)cc1C (centres undefined) in the list: activity change, negative = cytotoxicity: inactive: 17.2%
COc1ccc(-c2cc3ccc(O)c(CN4CCOCC4)c3oc2=O)cc1OC in the list: Potency: inconclusive: 1.46 µM [cytotoxic, full curve]

The list continues:

Row | SMILES | activity change, negative = cytotoxicity | Potency
23 | Nc1nccc(/C=C/c2c(Cl)cccc2Cl)n1 | – | inconclusive: 29.1 µM [cytotoxic, single point]
24 | COc1ccccc1-c1nnc(SCC(=O)c2ccc(Cl)cc2)n1-c1ccccc1 | – | inconclusive: 8.2 µM [cytotoxic, partial curve]
25 | COc1ccc(Br)cc1CN(C)C(C)C(=O)Nc1cccc(C(C)=O)c1 (centres undefined) | – | inconclusive: 18.4 µM [cytotoxic, single point]
26 | O=C(Nc1ccccc1N1CCCC1)C1CCN(S(=O)(=O)c2ccccc2)CC1 | – | inconclusive: 20.6 µM [cytotoxic, partial curve]
27 | COC(CNC(=O)CCc1c(C)nc2c(c(C)nn2-c2ccc(C)cc2)c1C)OC | inactive: -3.08% | –
28 | COc1ccc(-c2nc3ccc(N4CCCC4)cc3c(=O)[nH]2)cc1OC | – | inconclusive: 16.4 µM [cytotoxic, partial curve, poor fit]
29 | Nc1sc(-c2ccccc2)cc1C(=O)NCCc1ccc(Cl)cc1 | – | inconclusive: 25.9 µM [cytotoxic, partial curve, poor fit]
30 | CCOc1ccc(NC(=O)CSc2nnc(C3CC3)n2C2CC2)cc1 | – | active: 13 µM
31 | COC(=O)c1ccc2c(=O)[nH]c(CN3c4ccccc4CC3C)nc2c1 (centres undefined) | – | inconclusive: 29.1 µM [cytotoxic, single point]
32 | CCn1ccc2cc(S(=O)(=O)N3CCCN(C(=O)Nc4cccc(Cl)c4)CC3)ccc21 | – | active: 10.3 µM
33 | O=C(c1ccoc1)N1CCN(c2cc(-c3ccco3)nc3cc(-c4ccccc4)nn23)CC1 | – | inconclusive: 23.1 µM [cytotoxic, single point]
34 | COc1ccc(-c2csc3ncnc(N4CCN(c5ccccc5O)CC4)c23)cc1 | inactive: -28.5% | –
35 | COc1ccc(S(=O)(=O)N2CCN(c3ccccc3)CC2)cc1OC | inactive: -18% | –
36 | CC(C)C[C@@H](CNCC(=O)[C@H](Cc1ccccc1)NC(=O)c1[nH]cnc1C(=O)N[C@@H](C)CN)NC(=O)c1nc[nH]c1C(=O)N[C@@H](C)C(=O)O | – | inconclusive: 16.4 µM [rising, single point]
37 | CCCCCCn1c(=O)n2n(c1=O)[C@@H]1CN(S(=O)(=O)c3ccc(C)cc3)C[C@]1(O)[C@@H](OC(=O)Nc1cccs1)C2 | – | inconclusive: 20.6 µM [cytotoxic, single point]
38 | CCOc1ccccc1NC(=O)COC(=O)CN1C(=O)NC(C)(C)C1=O | inactive: -18.5% | –
39 | O=C(O)C1CC=CCC1C(=O)NC1CCCCC1 (centres undefined) | – | inconclusive: 11.6 µM [rising, partial curve]
40 | CCOC(=O)C1=C(C)NC2=C(C(=O)c3ccccc32)C1c1cccc2ccccc12 (centres undefined) | – | inconclusive: 7.31 µM [cytotoxic, partial curve, poor fit]
41 | O=C(N[C@H]1CCC(=O)N(CCSc2ccc(Br)cc2)CC1)OCc1ccccc1 | – | active: 20.6 µM
42 | O=C(O)CSc1ncn[nH]1 | – | inconclusive: 13 µM [rising, partial curve, poor fit]
43 | Cc1ccc(OCc2nnc(NC(=O)c3cccnc3)s2)cc1 | – | inconclusive: 16.4 µM [cytotoxic, partial curve, poor fit]
44 | CN(CC(=O)Nc1ccc(F)c(F)c1F)C(=O)C1CCCO1 (centres undefined) | – | inconclusive: 18.4 µM [rising, single point]

Row | SMILES | activity change, negative = cytotoxicity | Potency
45 | COc1cccc(Cn2cnc(-c3ccccc3OC)c2-c2ccco2)c1 | – | inconclusive: 20.6 µM [cytotoxic, single point]
46 | Cc1ccc(N(CCCCN2C(=O)c3ccccc3C2=O)C(=O)c2cccc([N+](=O)[O-])c2)cc1 | – | active: 18.4 µM
47 | CCOc1ccccc1NC(=O)c1nn(-c2ccc(C)cc2)c(=O)n(C)c1=O | inactive: 1.79% | –
48 | Cc1cc(NC(=O)CN2CCOCC2)n(-c2nc3ccccc3s2)n1 | – | inconclusive: 0.259 µM [cytotoxic, full curve, poor fit]
49 | CCOC(=O)c1c(NC(=O)Nc2cccc(Cl)c2)sc(C)c1C | – | inconclusive: 10.3 µM [cytotoxic, partial curve, poor fit]
50 | COC(=O)c1c(-c2cccs2)csc1NC(=O)COc1ccc(C(C)(C)C)cc1 | inactive: 13.6% | –
51 | O=C(CSc1nc2ccccc2c(=O)n1Cc1ccco1)c1ccccc1 | inactive: -6.66% | –
52 | O=C(NCC1CCN(Cc2cccc(Cl)c2)CC1)Nc1cc(Cl)ccc1Cl | – | inconclusive: 29.1 µM [cytotoxic, single point]
53 | CC(O)(c1cccnc1)c1nc(-c2ccc3c(c2)OCO3)cs1 (centres undefined) | – | inconclusive: 23.1 µM [cytotoxic, single point]
54 | COc1ccc(N(C)C(=O)CCn2cnc3onc(-c4ccc(F)cc4)c3c2=O)c(OC)c1 | – | inconclusive: 18.4 µM [cytotoxic, partial curve, poor fit]
55 | O=C(N[C@@H](Cc1ccccc1)C(=O)OCc1ccccc1)c1nc[nH]c1C(=O)N1CCNCC1 | – | inconclusive: 7.31 µM [rising, partial curve]
56 | Cc1ccc2nc(N3C(=O)C(O)=C(C(=O)c4ccco4)C3c3cccs3)sc2c1 (centres undefined) | – | active: 13 µM
57 | COCc1c(C(=O)NCC(c2ccco2)N2CCCC2)oc2ccccc12 (centres undefined) | – | inconclusive: 2.91 µM [cytotoxic, partial curve, poor fit]
58 | COc1cccc(NC(=S)N(CCCN2CCCC(C)C2)Cc2cccs2)c1 (centres undefined) | – | inconclusive: 8.2 µM [cytotoxic, partial curve]
59 | C/C(NC(=O)c1cccc(F)c1)=C1/C(=O)C[C@@H]2[C@H]1C2(C)C | – | inconclusive: 29.1 µM [cytotoxic, single point]
60 | COc1ccc(S(=O)(=O)Nc2ccc(C(F)(F)F)cc2)cc1OC | – | inconclusive: 23.1 µM [cytotoxic, single point]
61 | CCc1ccc(OCCOCC(O)CNC(C)CC)cc1 (centres undefined) | – | inconclusive: 20.6 µM [cytotoxic, partial curve, poor fit]
62 | Cc1cccnc1NCc1ccc(O)c2ncccc12 | – | inconclusive: 18.4 µM [cytotoxic, single point]
63 | CC1(C)CC(=O)C=C(c2ccccc2CO)C1=O | inactive: 0% | –
64 | Cc1ccc(-c2[nH][nH]c(=O)c(=O)c2N=Nc2ccccc2)cc1 | – | inconclusive: 5.17 µM [cytotoxic, full curve]
